# In PubChem BioAssay (EPA / NIEHS):
# Sequences of proteins named here, by UniProt entry; tags and fusion partners are left off.
# UniProt P43354, whole entry, looked up: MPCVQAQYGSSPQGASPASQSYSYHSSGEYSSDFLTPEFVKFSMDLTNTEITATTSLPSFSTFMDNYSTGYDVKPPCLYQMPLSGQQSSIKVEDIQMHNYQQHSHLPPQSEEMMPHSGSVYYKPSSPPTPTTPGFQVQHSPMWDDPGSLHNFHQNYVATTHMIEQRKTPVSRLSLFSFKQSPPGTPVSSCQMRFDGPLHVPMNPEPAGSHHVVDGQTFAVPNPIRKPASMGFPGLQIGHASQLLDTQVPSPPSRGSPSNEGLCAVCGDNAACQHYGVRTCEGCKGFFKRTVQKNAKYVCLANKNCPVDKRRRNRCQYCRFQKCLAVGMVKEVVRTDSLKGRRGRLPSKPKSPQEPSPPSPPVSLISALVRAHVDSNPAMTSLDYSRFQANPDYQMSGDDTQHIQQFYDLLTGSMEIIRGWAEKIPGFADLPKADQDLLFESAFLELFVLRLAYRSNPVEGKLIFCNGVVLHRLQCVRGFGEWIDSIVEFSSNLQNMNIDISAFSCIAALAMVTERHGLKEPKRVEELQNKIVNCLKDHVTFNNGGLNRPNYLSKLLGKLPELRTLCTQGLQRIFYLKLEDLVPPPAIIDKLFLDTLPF
# Values joined by “and” are separate entries in the source; they are usually repeats but may differ in a detail not shown here. Equal entries are not always repeated. The shares of active, inactive and inconclusive entries below differ from those in the screen. Potencies of inconclusive entries are doubtful fits and often do not repeat. Active and inactive are the calls of the source. Rule for the calls: active = hit-call score of the fitted dose curve at least 0.9, where 1 is the maximum; inconclusive = response in the unintended direction; inactive = score below 0.9.
# Target: Nuclear receptor subfamily 4 group A member 2 (Homo sapiens) (UniProt P43354)
# Assay: ATG_NURR1_TRANS: Attagene TRANS-FACTORIAL HepG2 Assay for human Nuclear Receptor Related Protein 1 (NURR1) (AID 2282985)
# Settings: HepG2 Attagene TRANS reporter, mRNA readout
# How it was run: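 Chimeric NR-Gal4 proteins were expressed in human HepG2 cells bearing GAL4-UAS reporter units, and induced reporter mRNA was quantified 24 h post-dosing by RT-PCR and capillary electrophoresis.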
Structure (SMILES),AC50,outcome
c1ccc(B(c2ccccc2)c2ccccc2)cc1,inconclusive: 24.1 µM,–
CC(=O)OCCOC(C)=O,inconclusive: 100 µM,–
CC(C)C(=O)OCCOc1ccccc1,inconclusive: 0.0648 µM,–
O=c1cccc[nH]1,–,inactive
CCN(Cc1cccnc1)C(=O)c1cccc(Cl)c1[C@]1(C)C(=O)N(Cc2ccc(OC)cc2OC)c2ccc(Cl)cc21,active: 8.74 µM,–
CCCCCCCCCCCCOC(=O)c1cc(O)c(O)c(O)c1,inconclusive: 6.87 µM,–
OC1CCCCCCCCCCC1,inconclusive: 19.8 µM,–
Cc1cc(C)c(C)c(C)c1,–,inactive
O=C1c2ccccc2C(=O)c2cc(S(=O)(=O)O)ccc21,inconclusive: 100 µM,–
NC(=NCCCCCCN=C(N)/N=C(\N)Nc1ccc(Cl)cc1)/N=C(\N)Nc1ccc(Cl)cc1,inconclusive: 24 µM,–
COc1cc([N+](=O)[O-])ccc1N,inconclusive: 0.0341 µM,–
CC1(C)[C@H]2CC[C@]1(C)C(=O)C2,inconclusive: 100 µM,–
CCCCCC(C)O (centres undefined),inconclusive: 178 µM,–
O=C(O)c1[nH]n(-c2ccc(S(=O)(=O)O)cc2)c(=O)c1N=Nc1ccc(S(=O)(=O)O)cc1,inconclusive: 15 µM,–
c1ccc2c(c1)ccc1ncccc12,–,inactive
CN(C)c1ccc(C(=C2C=CC(=[N+](C)C)C=C2)c2ccc(N(C)C)cc2)cc1,inconclusive: 0.0309 µM,–
O=CC1CC1,inconclusive: 2.77 µM,–
O=c1n(CCO)c(=O)n(CCO)c(=O)n1CCO,inconclusive: 100 µM,–
OCCN1CN(CCO)CN(CCO)C1,inconclusive: 0.0786 µM,–
OCCCC(F)(F)C(F)(F)C(F)(F)C(F)(F)C(F)(F)C(F)(F)C(F)(F)F,active: 16.6 µM and active: 17.2 µM,–
CCCCCCCCn1sc(Cl)c(Cl)c1=O,–,inactive

# An excerpt of these results, bar-delimited:
Structure (SMILES) | AC50 | outcome
CCN(Cc1cccnc1)C(=O)c1cccc(Cl)c1[C@]1(C)C(=O)N(Cc2ccc(OC)cc2OC)c2ccc(Cl)cc21 | active: 8.74 µM | –
c1ccc2c(c1)ccc1ncccc12 | – | inactive
